Measured values as given in doi:10.1101/2024.04.25.591231.
No constants are given. Whether binding was seen depends on the method and setting. Some results given as binding are weak or reduced against the parent protein; the word gives no strength.

Biological target: T1, Arabidopsis thaliana FIDGETIN-LIKE-1 (FIGL1) (Arabidopsis thaliana) (UniProt F4JEX5)
T1 sequence: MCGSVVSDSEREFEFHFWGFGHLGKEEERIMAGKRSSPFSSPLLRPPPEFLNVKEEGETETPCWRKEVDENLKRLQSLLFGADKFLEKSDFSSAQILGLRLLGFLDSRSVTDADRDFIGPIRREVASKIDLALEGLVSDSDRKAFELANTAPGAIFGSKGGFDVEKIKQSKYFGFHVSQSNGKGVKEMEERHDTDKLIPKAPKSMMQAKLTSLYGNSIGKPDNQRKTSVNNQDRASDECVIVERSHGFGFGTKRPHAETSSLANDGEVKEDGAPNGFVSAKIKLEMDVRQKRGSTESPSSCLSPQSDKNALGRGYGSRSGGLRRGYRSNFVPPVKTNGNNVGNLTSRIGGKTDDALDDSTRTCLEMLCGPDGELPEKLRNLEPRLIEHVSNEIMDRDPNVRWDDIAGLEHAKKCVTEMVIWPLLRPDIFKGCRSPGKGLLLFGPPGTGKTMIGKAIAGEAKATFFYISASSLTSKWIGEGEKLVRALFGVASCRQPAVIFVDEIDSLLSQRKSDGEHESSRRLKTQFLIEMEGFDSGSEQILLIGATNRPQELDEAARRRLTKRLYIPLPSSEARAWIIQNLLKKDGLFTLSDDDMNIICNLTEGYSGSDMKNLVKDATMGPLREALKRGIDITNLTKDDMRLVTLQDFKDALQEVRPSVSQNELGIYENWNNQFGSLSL
Assay: two-hybrid

B1: Arabidopsis thaliana XRCC2 (protein, UniProt Q682D3 1-372)
chain: MGDDEARSWIRGDETAKQMLSRVLKDRAFLLIPPLHRVPLRAGNVVEITGASTSAKTQILIQAAISCILPKTWNGIHYGGLGKLVLFLDLDCRFDVLRLSQMLKHRLLQANWLGNGAWWQLEESNVKSCKSAEEKTKTVFDEELYASCMKRFLYVRCYDSLELLSSLKTLHYRIQQQEACGSQVGVLMIDSIGAFHWTDRLSSSLALETHNRKSLSLTNVVETIVQELKKLLLVHSLVVLATKGTIYEEKYPANENNRKVSSNDHFSGNVASKAQQPPFREFMPSSWQAFVTHKIIIRKSADYQSLQTGQQNLLAYSLEWLQPQLSRIDRFIVDDVRKLTTIKPFYSKLLLIYIVIPASSSHAVWYCHCLVT
Q: B1 was tested. Which binding did it give?
A: binds
